Laboratory results from PubChem BioAssay AID1671190 (National Center for Advancing Translational Sciences (NCATS), 2021).
The campaign covered roughly 580,000 compounds. About 6,100 (1.1%) were called active. Inconclusive means that the source gave no clear call. Such entries were picked first, then a sample of the others. The call rests on the fitted dose curve; in most records, active means well fitted inhibition curve with a large enough effect; inconclusive means small, poorly fitted or top-dose-only effect, or another doubt; inactive means no such curve, though single readings can be large or run the other way. Potencies beside an inconclusive call are fits to weak or partial responses and may not hold up.

Amino acid sequences for entries named in this document (tags omitted). A change or cut given only in a name is not applied to a line headed by its entry.
UniProt P18054: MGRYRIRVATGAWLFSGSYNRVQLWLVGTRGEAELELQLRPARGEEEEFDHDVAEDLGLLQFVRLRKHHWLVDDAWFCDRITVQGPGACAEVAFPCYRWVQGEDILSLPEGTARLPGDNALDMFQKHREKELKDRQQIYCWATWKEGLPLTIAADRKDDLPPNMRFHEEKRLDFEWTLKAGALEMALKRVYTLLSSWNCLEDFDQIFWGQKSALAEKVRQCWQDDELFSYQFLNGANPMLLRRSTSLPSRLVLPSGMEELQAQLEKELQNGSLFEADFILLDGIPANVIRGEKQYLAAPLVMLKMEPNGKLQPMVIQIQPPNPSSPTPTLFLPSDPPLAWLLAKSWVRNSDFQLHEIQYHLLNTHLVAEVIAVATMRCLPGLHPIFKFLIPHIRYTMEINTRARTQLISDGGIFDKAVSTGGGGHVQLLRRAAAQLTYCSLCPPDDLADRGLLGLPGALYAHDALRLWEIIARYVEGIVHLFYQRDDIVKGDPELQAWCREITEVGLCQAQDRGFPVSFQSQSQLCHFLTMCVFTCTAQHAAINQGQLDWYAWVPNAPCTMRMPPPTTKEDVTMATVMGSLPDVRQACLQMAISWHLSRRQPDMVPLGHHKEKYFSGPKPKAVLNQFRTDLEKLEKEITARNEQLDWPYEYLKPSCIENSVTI

Target: Polyunsaturated fatty acid lipoxygenase ALOX12 (Homo sapiens) (UniProt P18054)
Experiment: Primary qHTS assay for inhibitors of human arachidonate 12S-lipoxygenase (ALOX12): Round 2
Details: purified 12hLO, xylenol orange hydroperoxide absorbance; series mostly up to 108 µM
Summary of the method: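 Purified human 12hLO (150 nM final) in 25 mM Hepes, 0.01% Triton X-100, pH 7.0 was preincubated 15 min at room temperature with compound. Then 40 uM arachidonic acid was added, 30 min. Hydroperoxide was read by Fe-XO absorbance ratio 573/405 nm.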
Potency means the concentration at half of the fitted maximal effect.

Row | Structure (SMILES) | Potency
1 | COc1ccc(C(NC(=O)CNc2ccccc2C(N)=O)C2CC2)cc1 (centres undefined) | inconclusive: 112 µM [inhibitor, single point]
2 | Cc1onc(-c2ccccc2Cl)c1C(=O)NC(=S)Nc1ccc(C(C)(C)C)cc1 | inconclusive: 50.1 µM [inhibitor, partial curve, poor fit]
3 | COc1cccc(N2CC(C(=O)Nc3nnc(SCC(=O)NCC4CCCO4)s3)CC2=O)c1 (centres undefined) | inactive
4 | O=C1C(=O)c2ccccc2C(O)=C1c1cccc([N+](=O)[O-])c1 | inconclusive: 100 µM [inhibitor, single point]
5 | CCN1CCN(CCCN(Cc2ccco2)C(=S)Nc2ccc(Cl)c(C)c2)CC1 | inactive
6 | COC(=O)c1ccc(NC(=O)CC2C(=O)N(c3cccc(OC)c3)C(=O)N2C(C)C)cc1 (centres undefined) | inactive
7 | COC(=O)N1C(=O)[C@@](c2ccc(OC)cc2)(C(C)C)N1C(=O)OC | inactive
8 | C=CCc1cccc2cc(C(=O)N3CCOCC3)c(=O)oc12 | inconclusive: 3.98 µM [inhibitor, full curve, poor fit]
9 | CCCN1C(=O)CC[C@@H](S(=O)(=O)c2ccccc2)[C@@H]1c1ccco1 | inconclusive: 100 µM [inhibitor, partial curve, poor fit]
10 | Clc1ccc(Cl)c(-c2nn3c(CN4CCCCC4)nnc3s2)c1 | inconclusive: 44.7 µM [inhibitor, partial curve, poor fit]
11 | COc1ccc(C(=O)NC(C)Cc2c[nH]c3ccccc23)cc1 (centres undefined) | inactive
12 | O=C(N[C@@H]1CN(Cc2cc(F)cc(F)c2)C[C@H]1CO)c1ccccc1 | inactive
13 | CCOc1ncccc1C(=O)Nc1ccc(C)c(S(=O)(=O)N2CCCCCC2)c1 | inactive
14 | O=C(c1cnc(Cc2c[nH]c3ccccc23)c(I)c1)N1CCOCC1 | active: 20 µM
15 | c1ccc(-c2nc(-c3ccco3)cs2)nc1 | inconclusive: 50.1 µM [inhibitor, partial curve, poor fit]
16 | COc1ccc(N2CCC(CNC(=S)Nc3c(C)cccc3C)C2)cc1 (centres undefined) | inconclusive: 31.6 µM [inhibitor, partial curve, poor fit]
17 | CCOC(=O)N1CCc2c(sc(N)c2C#N)C1 | inconclusive: 39.8 µM [inhibitor, partial curve, poor fit]
18 | CC(C)(C)c1ccc(C2CC2C(=O)N/N=C\c2cc3ccccc3nc2Cl)cc1 (centres undefined) | inactive
19 | CC(=O)Nc1ccc(S(=O)(=O)N[C@H]2CO[C@H]3[C@@H]2OC[C@@H]3n2nnnc2Oc2cccc(N3CCOCC3)c2)cc1 | inactive
20 | Cc1ccc(-c2csc(NC(=O)c3ccno3)n2)cc1 | inactive
21 | Cc1cnc(C)c(-c2cc(O)c3c(c2)CN(C(=O)C2CCOC2)CCO3)n1 (centres undefined) | inconclusive: 100 µM [inhibitor, partial curve, poor fit]
22 | CCCCSc1ncc(CN2CC[C@@]3(O)CCN(C(C)=O)C[C@H]3C2)cn1 | inactive
23 | Cc1cc2c3ccccc3[nH]c(=O)n2n1 | inconclusive: 100 µM [inhibitor, partial curve, poor fit]

A different layout for some results above.
COc1ccc(C(NC(=O)CNc2ccccc2C(N)=O)C2CC2)cc1 (centres undefined)
  Potency: inconclusive: 112 µM [inhibitor, single point]
Cc1onc(-c2ccccc2Cl)c1C(=O)NC(=S)Nc1ccc(C(C)(C)C)cc1
  Potency: inconclusive: 50.1 µM [inhibitor, partial curve, poor fit]
COc1cccc(N2CC(C(=O)Nc3nnc(SCC(=O)NCC4CCCO4)s3)CC2=O)c1 (centres undefined)
  Potency: inactive

Carrying on:

Row | Structure (SMILES) | Potency
24 | CCOc1ccc(CNC2CC2)cc1 | inconclusive: 3.16 µM [inhibitor, full curve, poor fit]
25 | COCCn1ncc(N2CCCC(CC(=O)NCCc3c[nH]c4ccccc34)C2)cc1=O (centres undefined) | inconclusive: 14.1 µM [inhibitor, full curve, poor fit]
26 | Fc1ccc(OC2CN(CC3CCCCC3)C2)cc1F | inconclusive: 56.2 µM [inhibitor, partial curve]
27 | CC(C)(C)c1ccc(OCC(=O)NCCN2CCCC2)cc1 | inactive
28 | Cc1cc(-c2csc(NC3CCCC3)n2)c(C)n1NC(=O)c1nn(C)c(=O)c2ccccc12 | inconclusive: 35.5 µM [inhibitor, partial curve, poor fit]
29 | OCCNc1nc2ccccc2nc1NCCO | inactive
30 | CC(=O)c1cccc(NC(=O)C(C)Sc2cc(Cl)ccc2Cl)c1 (centres undefined) | inconclusive: 79.4 µM [inhibitor, partial curve, poor fit]
31 | CN(CCc1ccccn1)C(=O)CCC[C@@H]1[C@H]2CCCN3CCC[C@@H](CN1C)[C@@H]23 | inactive
32 | CC(C)(C)c1coc([C@@H]2COCCN2Cc2ccc(C(=O)O)cc2)n1 | inactive
33 | CC(=O)/C(=C1\NC(C)(C)Cc2cc(C)c(C)cc21)c1ccccc1 | inactive
34 | CCCOc1ccc(/C=C(/C#N)c2nc3ccccc3[nH]2)cc1OCC | inconclusive: 63.1 µM [inhibitor, partial curve, poor fit]
35 | Cc1ccc([C@H]2N[C@]3(CCCN(Cc4ccc(Br)cc4)C3=O)[C@H]3C(=O)N(C)C(=O)[C@@H]23)cc1 | inconclusive: 100 µM [inhibitor, single point]
36 | Cc1ccc(S(=O)(=O)N2CCOCC2)cc1C(=O)NCc1cn2ccsc2n1 | inconclusive: 44.7 µM [inhibitor, partial curve, poor fit]
37 | Cn1c(=O)c2ncn(CC(=O)Nc3ccc4c5c(cccc35)CC4)c2n(C)c1=O | inconclusive: 56.2 µM [inhibitor, partial curve, poor fit]
38 | Cc1ccc(/C=c2\sc3nc(-c4cccs4)nn3c2=O)o1 | inconclusive: 12.6 µM [inhibitor, full curve, poor fit]
39 | CN(C)c1ccc(SSc2ccc(N(C)C)cc2)cc1 | inconclusive: 141 µM [inhibitor, partial curve, poor fit]
40 | Cc1cc(C)c2c(-n3cccc3)c(C(=O)NNS(=O)(=O)c3ccccc3)sc2n1 | inconclusive: 79.4 µM [inhibitor, partial curve, poor fit]
41 | CCCC1CCC(=NNC(=S)NCCc2ccccc2)CC1 (centres undefined) | active: 44.7 µM
42 | CC(Sc1nc(C2CC2)n(-c2ccccc2)n1)C(=O)c1c(N)n(C)c(=O)n(C)c1=O (centres undefined) | inactive
43 | CCc1cccc(NC(=O)CN(C)S(=O)(=O)c2ccc3[nH]c4c(c3c2)CCCC4)c1 | inconclusive: 112 µM [inhibitor, partial curve, poor fit]
44 | C[C@H](NC(=O)[C@@H]1CCCN1C(=O)[C@@H]1CCCN1C(=O)c1ccc(Cl)cc1)c1ccccc1 | inconclusive: 89.1 µM [inhibitor, single point]
45 | CN1NC2(CCCCC2)NC1=S | inconclusive: 20 µM [inhibitor, full curve, poor fit]
46 | CCNC(=S)Nc1ccc2c(c1)c(=O)n(C)n2-c1cc(C)cc(C)c1 | inconclusive: 50.1 µM [inhibitor, partial curve, poor fit]

Row | Structure (SMILES) | Potency
47 | CCOc1ccc(NC(=O)Nc2ccc(N(C)C(C)=O)cc2)cc1 | inconclusive: 79.4 µM [inhibitor, partial curve, poor fit]
48 | C/C(=C/C(=O)c1ccccc1)NCC(O)CN/C(C)=C\C(=O)c1ccccc1 (centres undefined) | inactive
49 | CN(Cc1ccccc1F)C(=O)CSc1nnc(COc2ccccc2Cl)n1C | inactive
50 | O=C(NCc1ccc(Cl)cc1Cl)Nc1ccccc1 | inactive
51 | Cc1cccc(NC(=S)NN2CCN(C)CC2)c1 | inconclusive: 28.2 µM [inhibitor, partial curve, poor fit]
52 | Cc1cc(N2C(=O)C(O)=C(C(=O)c3cccs3)C2c2cccc(O)c2)no1 (centres undefined) | inconclusive: 28.2 µM [inhibitor, partial curve, poor fit]
53 | CCOc1ccc(-c2nc(C#N)c(NCCCN(CC)CC)o2)cc1 | inconclusive: 79.4 µM [inhibitor, partial curve, poor fit]
54 | O=[N+]([O-])c1ccc(NC(=S)N/C(=N/CS(=O)(=O)c2ccccc2)c2ccccc2)cc1 | inconclusive: 17.8 µM [inhibitor, full curve, poor fit]
55 | COc1ccc2sc(N(CCCN(C)C)C(=O)c3ccc(S(=O)(=O)N4CCCc5ccccc54)cc3)nc2c1 | inconclusive: 31.6 µM [inhibitor, partial curve, poor fit]
56 | CCCOC(=O)c1ccc(Oc2cn[nH]c2-c2ccc(OC)cc2O)cc1 | inconclusive: 112 µM [inhibitor, single point]
57 | Cn1cc(C(=O)N2CCC3(CC2)NCCc2c3[nH]c3ccccc23)cn1 | inactive
58 | O=C(C1CC1)N1CC[C@H]2COC(=O)N2c2ccccc2C1 | inactive
59 | CCCc1sc(C(=O)OCCOc2ccc(S(N)(=O)=O)cc2)cc1CC | inactive
60 | Cc1ccc(C2C(C(=O)c3cccs3)=C(O)C(=O)N2c2nncs2)cc1 (centres undefined) | active: 2.24 µM
61 | CC1c2cc3c(cc2CCN1S(=O)(=O)c1cc(Cl)ccc1Cl)OCCCO3 (centres undefined) | inconclusive: 31.6 µM [inhibitor, partial curve, poor fit]
62 | CCc1cc(C(=O)Cc2csc(-c3ccccc3)n2)c(O)cc1O | inconclusive: 35.5 µM [inhibitor, partial curve, poor fit]
63 | CCCCOc1ccc(Br)cc1/C(C)=N/NC1=NCCN1 | inconclusive: 100 µM [inhibitor, single point]
64 | Cc1ccc(Cn2ccc(=O)c(Cc3c(Cl)cccc3Cl)c2C)cc1 | inactive
65 | Cc1cccc(CN2CCc3c(sc4ncnc(N(C)C)c34)C2)c1 | inactive
66 | CN1CC(=O)N(C2CCCNC2)Cc2c(NCCCO)ncnc21 (centres undefined) | inconclusive: 5 µM [inhibitor, single point]
67 | CNC(=O)[C@@H](C1CCCCC1)N1CCC[C@H]1C(=O)N1CCOCC1 | inconclusive: 17.8 µM [inhibitor, full curve, poor fit]
68 | O=C1CCN(S(=O)(=O)c2ccccc2)CCCC(C(=O)NCc2cc(F)cc(F)c2)CCN1 (centres undefined) | inactive
69 | COc1ccc(/C=N/NC(=S)Nc2ccccc2)cc1 | active: 50.1 µM
